Our source for the binding values is PMC9437860.

Amino acid sequences for entries named in this document (tags omitted).
UniProt Q9JLC8: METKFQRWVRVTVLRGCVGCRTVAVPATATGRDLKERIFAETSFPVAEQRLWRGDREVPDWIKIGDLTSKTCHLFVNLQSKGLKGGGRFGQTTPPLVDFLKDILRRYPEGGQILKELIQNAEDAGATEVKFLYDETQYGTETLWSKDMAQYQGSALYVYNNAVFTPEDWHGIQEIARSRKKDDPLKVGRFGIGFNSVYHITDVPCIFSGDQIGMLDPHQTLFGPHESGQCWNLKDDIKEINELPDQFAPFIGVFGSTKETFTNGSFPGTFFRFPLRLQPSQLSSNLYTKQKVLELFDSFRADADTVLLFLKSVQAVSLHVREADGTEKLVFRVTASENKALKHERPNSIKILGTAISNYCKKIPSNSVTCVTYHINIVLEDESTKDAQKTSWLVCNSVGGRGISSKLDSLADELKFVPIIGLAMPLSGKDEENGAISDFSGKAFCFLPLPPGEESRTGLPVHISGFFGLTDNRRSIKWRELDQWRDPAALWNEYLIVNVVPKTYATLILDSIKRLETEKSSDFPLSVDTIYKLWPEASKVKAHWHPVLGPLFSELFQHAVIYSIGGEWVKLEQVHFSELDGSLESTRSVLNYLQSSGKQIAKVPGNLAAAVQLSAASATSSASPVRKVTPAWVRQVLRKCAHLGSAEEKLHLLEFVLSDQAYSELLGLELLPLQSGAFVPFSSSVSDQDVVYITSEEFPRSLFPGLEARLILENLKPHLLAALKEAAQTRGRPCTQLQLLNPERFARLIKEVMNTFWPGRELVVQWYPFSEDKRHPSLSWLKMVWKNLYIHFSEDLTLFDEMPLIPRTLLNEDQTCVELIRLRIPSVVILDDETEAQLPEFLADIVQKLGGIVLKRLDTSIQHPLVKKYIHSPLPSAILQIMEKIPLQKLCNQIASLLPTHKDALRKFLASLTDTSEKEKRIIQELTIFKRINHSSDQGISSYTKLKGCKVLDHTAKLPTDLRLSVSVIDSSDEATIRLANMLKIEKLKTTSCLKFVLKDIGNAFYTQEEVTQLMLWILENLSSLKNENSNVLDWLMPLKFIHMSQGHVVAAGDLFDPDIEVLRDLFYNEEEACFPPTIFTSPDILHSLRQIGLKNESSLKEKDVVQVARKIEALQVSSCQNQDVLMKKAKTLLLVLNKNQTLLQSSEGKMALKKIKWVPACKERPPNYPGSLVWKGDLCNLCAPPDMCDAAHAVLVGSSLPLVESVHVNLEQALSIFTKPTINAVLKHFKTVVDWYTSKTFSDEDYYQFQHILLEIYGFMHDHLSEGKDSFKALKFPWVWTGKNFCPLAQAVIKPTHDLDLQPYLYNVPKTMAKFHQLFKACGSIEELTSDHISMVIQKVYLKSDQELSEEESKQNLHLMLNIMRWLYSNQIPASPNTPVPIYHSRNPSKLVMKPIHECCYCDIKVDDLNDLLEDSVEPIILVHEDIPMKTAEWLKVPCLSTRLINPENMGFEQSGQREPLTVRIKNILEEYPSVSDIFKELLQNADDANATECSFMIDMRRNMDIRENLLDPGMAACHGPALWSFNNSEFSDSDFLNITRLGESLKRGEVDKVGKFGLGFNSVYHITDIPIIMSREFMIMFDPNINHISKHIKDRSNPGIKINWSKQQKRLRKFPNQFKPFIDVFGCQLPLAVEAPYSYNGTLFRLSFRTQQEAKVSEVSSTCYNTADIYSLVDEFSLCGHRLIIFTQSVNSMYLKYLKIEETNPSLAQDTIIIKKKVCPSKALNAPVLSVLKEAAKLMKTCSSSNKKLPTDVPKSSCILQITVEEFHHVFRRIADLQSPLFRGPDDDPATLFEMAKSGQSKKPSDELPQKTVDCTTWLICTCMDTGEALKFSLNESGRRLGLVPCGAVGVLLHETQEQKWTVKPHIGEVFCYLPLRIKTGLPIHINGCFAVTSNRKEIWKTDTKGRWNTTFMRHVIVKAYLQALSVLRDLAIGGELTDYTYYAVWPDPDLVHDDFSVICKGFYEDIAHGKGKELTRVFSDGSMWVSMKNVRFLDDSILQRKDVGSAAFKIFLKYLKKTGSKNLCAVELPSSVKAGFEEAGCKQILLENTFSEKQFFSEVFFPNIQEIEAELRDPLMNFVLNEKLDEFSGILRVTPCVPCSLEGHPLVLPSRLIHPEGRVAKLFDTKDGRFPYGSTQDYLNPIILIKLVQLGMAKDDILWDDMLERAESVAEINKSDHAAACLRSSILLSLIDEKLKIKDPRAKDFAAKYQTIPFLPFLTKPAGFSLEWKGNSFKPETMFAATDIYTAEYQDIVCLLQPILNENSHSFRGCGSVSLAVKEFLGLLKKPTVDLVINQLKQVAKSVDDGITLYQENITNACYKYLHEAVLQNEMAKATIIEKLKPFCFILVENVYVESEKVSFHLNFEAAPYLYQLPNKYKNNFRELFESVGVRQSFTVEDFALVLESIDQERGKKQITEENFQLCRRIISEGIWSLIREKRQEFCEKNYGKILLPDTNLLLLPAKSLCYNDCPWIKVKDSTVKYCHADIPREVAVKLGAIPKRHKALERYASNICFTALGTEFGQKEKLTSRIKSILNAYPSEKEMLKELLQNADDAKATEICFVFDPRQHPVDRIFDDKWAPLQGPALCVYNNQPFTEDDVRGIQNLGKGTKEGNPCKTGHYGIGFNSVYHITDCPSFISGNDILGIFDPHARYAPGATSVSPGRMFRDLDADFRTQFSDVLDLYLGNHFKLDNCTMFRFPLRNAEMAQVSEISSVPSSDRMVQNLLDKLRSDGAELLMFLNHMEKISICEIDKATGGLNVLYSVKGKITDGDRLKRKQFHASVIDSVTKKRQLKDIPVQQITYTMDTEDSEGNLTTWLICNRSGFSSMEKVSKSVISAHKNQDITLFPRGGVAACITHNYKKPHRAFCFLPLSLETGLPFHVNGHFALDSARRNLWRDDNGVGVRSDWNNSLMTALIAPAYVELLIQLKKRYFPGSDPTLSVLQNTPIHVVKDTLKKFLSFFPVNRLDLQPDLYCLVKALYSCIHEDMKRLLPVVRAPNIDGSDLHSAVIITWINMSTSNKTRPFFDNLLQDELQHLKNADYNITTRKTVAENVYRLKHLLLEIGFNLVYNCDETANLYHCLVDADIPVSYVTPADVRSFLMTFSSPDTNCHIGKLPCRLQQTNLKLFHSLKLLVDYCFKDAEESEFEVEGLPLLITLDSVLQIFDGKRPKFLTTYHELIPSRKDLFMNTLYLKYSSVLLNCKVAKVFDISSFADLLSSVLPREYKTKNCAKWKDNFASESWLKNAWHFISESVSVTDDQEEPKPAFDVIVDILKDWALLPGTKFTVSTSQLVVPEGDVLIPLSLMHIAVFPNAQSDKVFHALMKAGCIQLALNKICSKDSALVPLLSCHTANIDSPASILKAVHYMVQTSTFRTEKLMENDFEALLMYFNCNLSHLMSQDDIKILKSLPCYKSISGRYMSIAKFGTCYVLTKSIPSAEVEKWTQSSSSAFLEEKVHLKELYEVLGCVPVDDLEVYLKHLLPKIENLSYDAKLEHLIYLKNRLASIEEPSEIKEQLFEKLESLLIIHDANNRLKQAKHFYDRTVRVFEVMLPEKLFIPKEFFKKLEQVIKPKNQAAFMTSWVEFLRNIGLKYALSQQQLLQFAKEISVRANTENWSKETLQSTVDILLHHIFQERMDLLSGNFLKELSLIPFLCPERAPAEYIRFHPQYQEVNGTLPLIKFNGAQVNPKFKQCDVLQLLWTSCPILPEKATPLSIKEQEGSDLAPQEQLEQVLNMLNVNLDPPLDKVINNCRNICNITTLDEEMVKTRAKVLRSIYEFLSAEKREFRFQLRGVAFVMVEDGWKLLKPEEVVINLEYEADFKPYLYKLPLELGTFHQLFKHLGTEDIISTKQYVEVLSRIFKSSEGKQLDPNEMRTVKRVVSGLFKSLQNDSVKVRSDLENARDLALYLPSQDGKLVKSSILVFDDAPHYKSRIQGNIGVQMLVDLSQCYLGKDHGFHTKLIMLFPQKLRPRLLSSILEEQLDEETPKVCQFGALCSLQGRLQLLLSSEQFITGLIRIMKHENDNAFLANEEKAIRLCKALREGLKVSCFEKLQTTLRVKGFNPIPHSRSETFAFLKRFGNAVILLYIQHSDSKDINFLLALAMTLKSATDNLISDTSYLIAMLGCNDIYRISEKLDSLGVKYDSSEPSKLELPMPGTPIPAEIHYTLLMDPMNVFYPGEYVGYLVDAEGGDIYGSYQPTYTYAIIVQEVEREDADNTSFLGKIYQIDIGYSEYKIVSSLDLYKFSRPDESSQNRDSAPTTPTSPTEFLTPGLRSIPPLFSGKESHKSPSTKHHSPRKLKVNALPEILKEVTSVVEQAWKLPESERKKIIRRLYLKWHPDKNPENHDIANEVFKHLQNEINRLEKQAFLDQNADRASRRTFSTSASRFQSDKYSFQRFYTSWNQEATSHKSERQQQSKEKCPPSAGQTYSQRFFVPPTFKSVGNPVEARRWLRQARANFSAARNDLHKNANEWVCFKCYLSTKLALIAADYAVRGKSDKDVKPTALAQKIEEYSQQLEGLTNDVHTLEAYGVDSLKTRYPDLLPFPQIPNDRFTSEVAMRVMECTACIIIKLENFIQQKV

The experiment concerns the target sacsin (endogenous, mouse brain) (mouse (endogenous in mouse brain)) (UniProt Q9JLC8). The experiment in a line: affinity purification with mass spectrometry; mouse brain lysate incubated with Protein A Sepharose beads conjugated to affinity-purified sacsin antibody, 2 h at 4 °C; control: beads with lysate.

No constants are given. Whether binding was seen depends on the method and setting. In cells and extracts the contact can be indirect. These calls come from enrichment with a bait or labelling near it, and not all partners need be listed.

B1: JIP3 (C-jun-amino-terminal kinase-interacting protein 3), endogenous, mouse brain (protein, UniProt Q9ESN9 1-1337)
chain: MMEIQMDEGGGVVVYQDDYCSGSVMSERVSGLAGSIYREFERLIHCYDEEVVKELMPLVVNVLENLDSVLSENQEHEVELELLREDNEQLLTQYEREKALRKQAEEKFIEFEDALEQEKKELQIQVEHYEFQTRQLELKAKNYADQISRLEERESEMKKEYNALHQRHTEMIQTYVEHIERSKMQQVGGSGQTESSLPGRSRKERPTSLNVFPLADGMVRAQMGGKLVPAGDHWHLSDLGQLQSSSSYQCPNDEMSESGQSSAAATPSTTGTKSNTPTSSVPSAAVTPLNESLQPLGDYVSVTKNNKQAREKRNSRNMEVQVTQEMRNVSIGMGSSDEWSDVQDIIDSTPELDVCPETRLERTGSSPTQGIVNKAFGINTDSLYHELSTAGSEVIGDVDEGADLLGEFSVRDDFFGMGKEVGNLLLENSQLLETKNALNVVKNDLIAKVDQLSGEQEVLKGELEAAKQAKVKLENRIKELEEELKRVKSEAVTARREPREEVEDVSSYLCTELDKIPMAQRRRFTRVEMARVLMERNQYKERLMELQEAVRWTEMIRASREHPSVQEKKKSTIWQFFSRLFSSSSSPPPAKRSYPSVNIHYKSPTAAGFSQRRSHALCQISAGSRPLEFFPDDDCTSSARREQKREQYRQVREHVRNDDGRLQACGWSLPAKYKQLSPNGGQEDTRMKNVPVPVYCRPLVEKDPSTKLWCAAGVNLSGWKPHEEDSSNGPKPVPGRDPLTCDREGEGEPKSTHPSPEKKKAKETPEADATSSRVWILTSTLTTSKVVIIDANQPGTIVDQFTVCNAHVLCISSIPAASDSDYPPGEMFLDSDVNPEDSGADGVLAGITLVGCATRCNVPRSNCSSRGDTPVLDKGQGDVATTANGKVNPSQSTEEATEATEVPDPGPSESEATTVRPGPLTEHVFTDPAPTPSSSTQPASENGSESNGTIVQPQVEPSGELSTTTSSAAPTMWLGAQNGWLYVHSAVANWKKCLHSIKLKDSVLSLVHVKGRVLVALADGTLAIFHRGEDGQWDLSNYHLMDLGHPHHSIRCMAVVNDRVWCGYKNKVHVIQPKTMQIEKSFDAHPRRESQVRQLAWIGDGVWVSIRLDSTLRLYHAHTHQHLQDVDIEPYVSKMLGTGKLGFSFVRITALLIAGNRLWVGTGNGVVISIPLTETVVLHRGQLLGLRANKTSPTSGEGTRPGGIIHVYGDDSSDKAASSFIPYCSMAQAQLCFHGHRDAVKFFVSVPGNVLATLNGSVLDSPSEGPGPAAPAADAEGQKLKNALVLSGGEGYIDFRIGDGEDDETEECAGDVNQTKPSLSKAERSHIIVWQVSYTPE
Consider B1, for which the binding result was “binds”.
